Consider 14 molecules from patent US20210206856A1.

The chains behind the UniProt entries cited, without tags or fusion partners. Residues count along the entry.
UniProt Q61826, residues 22-365: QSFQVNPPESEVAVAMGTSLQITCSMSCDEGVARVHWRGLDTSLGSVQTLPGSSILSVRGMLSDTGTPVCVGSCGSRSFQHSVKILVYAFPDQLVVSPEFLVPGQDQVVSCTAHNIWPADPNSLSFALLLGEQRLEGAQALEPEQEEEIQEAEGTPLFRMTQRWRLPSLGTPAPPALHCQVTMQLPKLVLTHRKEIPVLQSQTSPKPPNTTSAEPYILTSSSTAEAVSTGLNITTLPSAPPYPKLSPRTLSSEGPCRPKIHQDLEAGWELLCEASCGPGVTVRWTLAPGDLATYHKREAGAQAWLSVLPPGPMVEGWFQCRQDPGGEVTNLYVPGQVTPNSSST
UniProt Q13477, residues 19-317: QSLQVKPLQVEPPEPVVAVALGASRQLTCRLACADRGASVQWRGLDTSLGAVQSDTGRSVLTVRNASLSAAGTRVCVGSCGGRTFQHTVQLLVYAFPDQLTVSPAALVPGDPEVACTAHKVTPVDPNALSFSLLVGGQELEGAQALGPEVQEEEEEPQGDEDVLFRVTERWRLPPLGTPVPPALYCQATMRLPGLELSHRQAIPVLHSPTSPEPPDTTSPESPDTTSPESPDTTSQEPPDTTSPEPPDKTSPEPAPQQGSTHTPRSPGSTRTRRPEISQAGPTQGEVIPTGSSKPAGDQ

The labels stand for the following.
B1: MAdCAM Antibody Table 2 Clone 7 (antibody, human IgG1, V domains shown)
VH: EVQLLESGGGLVQPGGSLRLSCAASGFTFSDYQMSWVRQAPGKGLEWVAIISHADGGFKDYADSVKGRFTISRDNSKNTLYLQMNSLRAEDTAVYYCAKPYSSGWSAVYYFDYWGQGTLVTVSS
VL: DIQMTQSPSSLSASVGDRVTITCRASRGITNDLGWYQQKPGKAPKLLIYAASTLQSGVPSRFSGSGSGTDFTLTISSLQPEDFATYYCQQAYSFPWTFGQGTKVEIK
B2: MAdCAM Antibody Table 2 Clone 11 (antibody, human IgG1, V domains shown)
VH: EVQLLESGGGLVQPGGSLRLSCAASGFTFSDYYMNWVRQAPGKGLEWVSVIGESGGSTYYADSVKGRFTISRDNSKNTLYLQMNSLRAEDTAVYYCAADPVSRWPKHGGGDYWGQGTLVTVSS
VL: B1 VL with R27Q, T30S, N31S, D32S, G34A, A91S, F94T
B3: MAdCAM Antibody Table 2 Clone 8 (antibody, human IgG1, V domains shown)
VH: QVQLVQSGAEVKKPGASVKVSCKASGYTFTGYHIHWVRQAPGQGLEWMGIINPSGGSTIYAQKFQGRVTMTRDTSTSTVYMELSSLRSEDTAVYYCAKDWSSWYLGPFDYWGQGTLVTVSS
VL: DIQMTQSPSSLSASVGDRVTITCRASQNISSSLNWYQQKPGKAPKLLIYAASSLQSGVPSRFSGSGSGTDFTLTISSLQPEDFATYYCQQSYTTPYTFGQGTKVEIK
B4: MAdCAM Antibody Table 2 Clone 75 (antibody, human IgG1, V domains shown)
VH: EVQLLESGGGLVQPGGSLRLSCAASGFTFSDFWMHWVRQAPGKGLEWISYISGDSGYTNYADSVKGRFTISRDNSKNTLYLQMNSLRAEDTAVYYCARDRPYYYYMDVWGKGTTVTVSS
VL: B3 VL with N28S, I29V, S31R, N34A, S91Y, Y92K, T93S, T94Y, Y96V
B5: MAdCAM Antibody Table 2 Clone 79 (antibody, human IgG1, V domains shown)
VH: EVQLLESGGGLVKPGGSLRLSCAASGFTFDDYAMHWVRQAPGKGLEWVASITSSSAFIDYAASVKGRFTISRDDSKNTLYLQMNSLKTEDTAVYYCARERVDWNSYFDLWGRGTLVTVSS
VL: EIVMTQSPATLSVSPGERATLSCRASQGISNSYLAWYQQKPGQAPRLLIYGASTRATGIPARFSGSGSGTEFTLTISSLQSEDFAVYYCQQYYTYPPTFGPGTKVDIK
B6: MAdCAM Antibody Table 1 Clone 59 (scFv)
scFv: EVQLLESGGGLVQPGGSLRLSCAASGFTFSDFWMHWVRQAPGKGLEWISYISGDSGYTNYADSVKGRFTISRDNSKNTLYLQMNSLRAEDTAVYYCARDRPYYYYMDVWGKGTTVTVSSGGGGSGGGGSGGGGSGGGGSDIQMTQSPSSLSASVGDRVTITCRASQSVSRSLAWYQQKPGKAPKLLIYAASSLQSGVPSRFSGSGSGTDFTLTISSLQPEDFATYYCQQYKSYPVTFGQGTKVEIK
B7: MAdCAM Antibody Table 1 Clone 4 (scFv)
scFv: QVQLVQSGAEVKKPGASVKVSCKASGGTFSSYAISWVRQAPGQGLEWMGSINPSGDTTSYAQKFQGRVTMTRDTSTSTVYMELSSLRSEDTAVYYCAKDKAQWLVGYFDYWGQGTLVTVSSGGGGSGGGGSGGGGSGGGGSDIQMTQSPSSLSASVGDRVTITCQASQDISNSLNWYQQKPGKAPKLLIYAASSLQSGVPSRFSGSGSGTDFTLTISSLQPEDFATYYCQQSYSSVITFGQGTKVEIK
B8: MAdCAM Antibody Table 1 Clone 63 (scFv)
scFv: EVQLLESGGGLVKPGGSLRLSCAASGFTFDDYAMHWVRQAPGKGLEWVASITSSSAFIDYAASVKGRFTISRDDSKNTLYLQMNSLKTEDTAVYYCARERVDWNSYFDLWGRGTLVTVSSGGGGSGGGGSGGGGSGGGGSEIVMTQSPATLSVSPGERATLSCRASQGISNSYLAWYQQKPGQAPRLLIYGASTRATGIPARFSGSGSGTEFTLTISSLQSEDFAVYYCQQYYTYPPTFGPGTKVDIK
B9: MAdCAM Antibody Table 1 Clone 2 (scFv)
scFv: QVQLVQSGAEVKKPGASVKVSCKASGYPFIGYYLHWVRQAPGQGLEWMGIINPSGGSTSYAQKFQGRVTMTRDTSTSTVYMELSSLRSEDTAVYYCAREGRLSYGMDAWGQGTLVTVSSGGGGSGGGGSGGGGSGGGGSDIQMTQSPSSLSASVGDRVTITCRASQSISSYLAWYQQKPGKAPKLLIYGASTLESGVPSRFSGSGSGTDFTLTISSLQPEDFATYYCQQTWGPPFTFGQGTKLEIK
B10: MAdCAM Antibody Table 2 Clone 82 (antibody, human IgG1, V domains shown)
VH: QVQLVQSGAEVKKPGASVKVSCKASGYTFTRHWIHWVRQAPGQGLEWMGWINVKTGGAGYAQKFQGRVTMTRDTSTSTVYMELSSLRSEDTAVYYCARESSGWYGTDVWGQGTTVTVSS
VL: B3 VL with V19A, N28S, S31N, S32Y, N34A, Y92N, T93S, T94F, Y96L, Q100G
B11: MAdCAM Antibody Table 1 Clone 6 (scFv)
scFv: EVQLLESGGGLVQPGGSLRLSCAASGFTFNNYAFHWVRQAPGKGLEWVSRINSYGTSTTYADSVKGRFTISRDNSKNTLYLQMNSLRAEDTAVYYCAREGPVAGYWYFDLWGQGTLVTVSSGGGGSGGGGSGGGGSGGGGSDIQMTQSPSSLSASVGDRVTITCRASQIIGTNLAWYQQKPGKAPKLLIYGASSLQSGVPSRFSGSGSGTDFTLTISSLQPEDFATYYCQQSYRLPFTFGQGTKVEIK
B12: MAdCAM Antibody Table 1 Clone 1 (scFv)
scFv: EVQLLESGGGLVQPGGSLRLSCAASGFTFSSYGMHWVRQAPGKGLEWVAVISDDGSDKYYADSVKGRFTISRDNSKNTLYLQMNSLRAEDTAVYYCTTSKYYYYYGMDVWGQGTTVTVSSGGGGSGGGGSGGGGSGGGGSDIQMTQSPSSLSASVGDRVTITCQASQDISKSLNWYQQKPGKAPKLLIYAASSLQSGVPSRFSGSGSGTDFTLTISSLQPEDFATYYCQQGYSTPLTFGGGTKVEIK
B13: MAdCAM Antibody Table 2 Clone 83 (antibody, human IgG1, V domains shown)
VH: EVQLLESGGGLVQPGGSLRLSCAASGFTFSSYWMHWVRQAPGKGLEWVAAISYDGKYKDYEDSVKGRFTISRDNSKNTLYLQMNSLRAEDTAVYYCARENKQWLASFDYWGQGTLVTVSS
VL: DIQMTQSPSSLSASVGDRVTITCQASQDISNFVNWYQQKPGKAPKLLIYAANLRSGVPSRFSGSGSGTDFTLTISSLQPEDFATYYCQQANSFPVTFGPGTKVDIK
B14: MAdCAM Antibody Table 2 Clone 84 (antibody, human IgG1, V domains shown)
VH: QVQLVQSGAEVKKPGASVKVSCKASGGTFSSSAISWVRQAPGQGLEWMGWISAYNGYTNYAQKFQGRVTMTRDTSTSTVYMELSSLRSEDTAVYYCASRVHSGGSYPDDYWGQGTLVTVSS
VL: DIQMTQSPSSLSASVGDRVTITCQASEHIYNYLNWYQQKPGKAPKLLIYAASSLQSGVPSRFSGSGSGTDFTLTISSLQPEDFATYYCQQTDSIPITFGQGTKVEIK

Positions count from the first letter of the chain named. Results are given in words; binding and its absence hold for the method and conditions named. Some entries that bind do so weakly or less than the wild type.

One assay deals with recombinant mouse MAdCAM-1 (mouse) (UniProt Q61826). Description: Octet.
With B1, the binding entry is “binds”.

For the molecule B2, the binding entry is reported as “binds”.

As to B3, the binding entry is on record as “binds”.

For B4, the binding result was “binds”.

For the molecule B5, the binding result is “binds”.

Consider B6, for which the binding entry is given as “binds”.

Turning to B7, the binding result is reported as “binds”.

B8: the binding entry is listed as “binds”.

Turning to B9, the binding result was “binds”.

The target of another assay is recombinant human MAdCAM protein (human) (UniProt Q13477). Description: Octet. In general terms: BLI is a label-free optical method that tracks binding on a fibre tip over time.
In the case of B2, the binding entry is given as “binds”.

Turning to B4, the binding entry was “binds”.

Turning to B10, the binding entry is given as “binds”.

On to B11, for which the binding result is “binds”.

Take B5: the binding result is given as “binds”.

As for B6, the binding entry is reported as “binds”.

On to B7, for which the binding entry was “binds”.

With B8, the binding result is reported as “binds”.

As for B12, the binding result was “binds”.

For B13, the binding entry is listed as “binds”.

With B9, the binding entry is on record as “binds”.

Turning to B14, the binding result is listed as “binds”.
